Values from PubChem BioAssay AID1508597 (Cure First, 2020).
Shown is an unselected part of the about 2,100 reagents, under one of the conditions tested. 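Calls flag viability under 80% in either arm, not effects specific to rucaparib; the reference for percent is not stated.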 The record does not give: the 100% reference.

Purpose: 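Survival screen with siRNA in ovarian cancer cells derived from patients, with or without rucaparib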 (primary screen)
Cell system: human ovarian carcinoma lines grown from tumours: OCI-P5x (papillary serous) and OCI-C5x (clear cell)
Reagents: siRNA pool against human genes, 1.25 pmol siRNA per well
Timing: 72 h or 96 h, depending on the cell culture
Challenge: rucaparib 20 µM (about IC30) or vehicle, present until read-out
Rucaparib or vehicle: Vehicle
Cell line: OCI-C5x (clear cell)
Measurement: 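Luminescent ATP-based viability assay read 72 or 96 h after transfection, depending on culture, given as normalised percent viability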
Scale: viability, normalised: higher = more viable cells remaining
Call rule: 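a well counts as a hit if its normalised viability is under 80 percent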
Calls: active = viability under 80%; inactive = viability 80% or more

SOX9, technical replicate 1 → viability, normalised (%) = 58.2; activity call = active
SOX9, technical replicate 2 → viability, normalised (%) = 55.4; activity call = active
SOX9, technical replicate 3 → viability, normalised (%) = 58.2; activity call = active
EPHA5, technical replicate 1 → viability, normalised (%) = 64; activity call = active
EPHA5, technical replicate 2 → viability, normalised (%) = 40.2; activity call = active
EPHA5, technical replicate 3 → viability, normalised (%) = 44.6; activity call = active
AXL, technical replicate 1 → viability, normalised (%) = 50.3; activity call = active
AXL, technical replicate 2 → viability, normalised (%) = 66.9; activity call = active
AXL, technical replicate 3 → viability, normalised (%) = 59.7; activity call = active
GRB10, technical replicate 1 → viability, normalised (%) = 58.6; activity call = active
GRB10, technical replicate 2 → viability, normalised (%) = 57.4; activity call = active
GRB10, technical replicate 3 → viability, normalised (%) = 54.4; activity call = active
PHKA2, technical replicate 1 → viability, normalised (%) = 80.9; activity call = inactive
PHKA2, technical replicate 2 → viability, normalised (%) = 75.2; activity call = active
PHKA2, technical replicate 3 → viability, normalised (%) = 89.1; activity call = inactive
CETN2, technical replicate 1 → viability, normalised (%) = 38.6; activity call = active
CETN2, technical replicate 2 → viability, normalised (%) = 43; activity call = active
CETN2, technical replicate 3 → viability, normalised (%) = 41.5; activity call = active
ZNF541, technical replicate 1 → viability, normalised (%) = 31.1; activity call = active
ZNF541, technical replicate 2 → viability, normalised (%) = 56.7; activity call = active
ZNF541, technical replicate 3 → viability, normalised (%) = 60.8; activity call = active
TRERF1, technical replicate 1 → viability, normalised (%) = 72.7; activity call = active
TRERF1, technical replicate 2 → viability, normalised (%) = 60.1; activity call = active
TRERF1, technical replicate 3 → viability, normalised (%) = 68.1; activity call = active
CBX4, technical replicate 1 → viability, normalised (%) = 50.7; activity call = active
CBX4, technical replicate 2 → viability, normalised (%) = 60.3; activity call = active
CBX4, technical replicate 3 → viability, normalised (%) = 65.1; activity call = active
TNF, technical replicate 1 → viability, normalised (%) = 35.1; activity call = active
TNF, technical replicate 2 → viability, normalised (%) = 54.8; activity call = active
TNF, technical replicate 3 → viability, normalised (%) = 29.6; activity call = active
WNK3, technical replicate 1 → viability, normalised (%) = 69.3; activity call = active
WNK3, technical replicate 2 → viability, normalised (%) = 60.6; activity call = active
WNK3, technical replicate 3 → viability, normalised (%) = 60.5; activity call = active

Part of the list above, set out differently:
| gene | technical replicate | viability, normalised (%) | activity call |
| --- | --- | --- | --- |
| SOX9 | 2 | 55.4 | active |
| SOX9 | 3 | 58.2 | active |
| EPHA5 | 1 | 64 | active |
| EPHA5 | 2 | 40.2 | active |
